From PubChem BioAssay AID540276 (National Center for Advancing Translational Sciences (NCATS), 2011)
The whole screen tested about 300,000 compounds, of which about 5,400 (1.8%) were called active. Inconclusive results, whose numbers are uncertain, are shown with a selection of clear calls. Calls come from the whole dose curve; tested in HEK293 cells. Potencies beside an inconclusive call are fits to weak or partial responses and may not hold up.

Test: qHTS for inhibitors of binding or entry into cells for Marburg Virus
Conditions: Marburg virus pseudotyped entry inhibition, cell reporter; activity change, negative = inhibition: at 37.8 µM (top of the series) unless noted
% is set by controls: 0 for no effect and ±100 for the full control effect; potency is the fitted concentration of half-maximal effect.

Compound | Potency | activity change, negative = inhibition
CNC(=S)N(CCc1cccc(C)c1)Cc1cc2cc(OC)c(OC)cc2[nH]c1=O | inconclusive: 11.2 µM [inhibitor, partial curve, poor fit] | 
CCC(=O)Nc1cc(ON=C(C)C)cc([N+](=O)[O-])c1 | inconclusive: 2.82 µM [inhibitor, single point] | 
COC(=O)c1sccc1NC(=O)CSc1ccccc1NS(=O)(=O)c1ccccc1Cl | inconclusive: 7.3 µM [inhibitor, partial curve] | 
COc1cc(/C=N/N2CCCCC2)cc(OC)c1O | inconclusive: 17.8 µM [activator, partial curve, poor fit] | 
COc1ccc(-c2cc(C(=O)Nc3cccc(C(C)=O)c3)no2)cc1 |  | inactive: 16.2%
COCCNC(=O)C(=O)N/N=C(\C)CC(=O)Nc1cccnc1 |  | inactive: -14.5% [at 46.1 µM]
COc1ccc(N2CCN(C3CCCN(C(=O)C4=C(C)OCCO4)C3)CC2)cc1 (stereo unspecified) |  | inactive: 1.65%
Cc1ccc(N2CC(C(=O)N3CCC(C(=O)Nc4ccc(Br)cc4)CC3)CC2=O)cc1 (stereo unspecified) | inconclusive: 35.5 µM [inhibitor, single point] | 
Cc1ccc(OCCc2csc(N)n2)cc1 |  | inactive: -12.2% [at 46.1 µM]
CCOC(=O)c1c(NC(NC(C)=O)C(Cl)(Cl)Cl)sc(C(C)=O)c1C (stereo unspecified) | inconclusive: 35.5 µM [inhibitor, single point] | 
Cc1ccc(CC(=O)NCc2ccc(F)cc2)cc1 | inconclusive: 6.31 µM [inhibitor, partial curve, poor fit] | 
O=c1c2cnn(-c3ccccc3)c2nc(-c2cccs2)n1-c1ccc(Cl)cc1 |  | inactive: -10.1%
COc1ccc2c(c1)CCc1c(C(=O)Nc3c(C)nn(Cc4ccc(C)cc4)c3C)noc1-2 | inconclusive: 28.2 µM [inhibitor, partial curve, poor fit] | 
CCc1nnc(NC(=O)CSc2ccc(-c3ccc(C)cc3)nn2)s1 |  | inactive: -5.77%
CCn1c(C)cc(/C=C2/NC(=O)N(c3ccccc3)C2=O)c1C |  | inactive: -24.5%
CCc1noc(C)c1C(=O)Nc1cccc(S(=O)(=O)N(C)c2ccccc2)c1 | inconclusive: 22.4 µM [inhibitor, single point] | 
COc1ccc(NC(=O)c2ccc(COCC(F)(F)F)cc2)cc1OC | inconclusive: 0.231 µM [activator, single point] | 
COc1ccc(OC)c(-c2csc(NC(=O)Cc3ccc(F)cc3)n2)c1 | inconclusive: 14.1 µM [inhibitor, partial curve, poor fit] | 
Cc1cc(C)c(C)c(S(=O)(=O)N2CCC(C(=O)Nc3ccc(S(=O)(=O)N4CCOCC4)cc3)CC2)c1C | inconclusive: 35.5 µM [inhibitor, single point] | 
CC(C)CC(CC(C)C)=NNC(=O)c1ccc2c(c1)OCO2 |  | inactive: 9.7% [at 46.1 µM]
c1ccc2c(c1)cnc1ccccc12 | inactive | 
CS(=O)(=O)NC1CCN(Cc2ccccc2)CC1 |  | inactive: 3.91%
COc1ccc2cc(C3CC(c4cccs4)=NN3S(C)(=O)=O)c(Cl)nc2c1 (stereo unspecified) | inconclusive: 29.1 µM [inhibitor, single point] | 
CCC1C(c2cc(OC)c(OC)c(OC)c2)c2cc3c(cc2OC1N1CCCC1)OCO3 (stereo unspecified) | inconclusive: 6.31 µM [inhibitor, full curve, poor fit] | 

Of the compounds above, these have an aryl thioether with sulfur outside any ring.
Compound | Potency | activity change, negative = inhibition
COC(=O)c1sccc1NC(=O)CSc1ccccc1NS(=O)(=O)c1ccccc1Cl | inconclusive: 7.3 µM [inhibitor, partial curve] | 
CCc1nnc(NC(=O)CSc2ccc(-c3ccc(C)cc3)nn2)s1 |  | inactive: -5.77%

(listing goes on)

Compound | Potency | activity change, negative = inhibition
Cc1ccc(-c2noc(CCC(=O)NC3CCCc4ccccc43)n2)cc1 (stereo unspecified) |  | inactive: -23.8%
CCOC(=O)c1sc(=NC(=O)COc2ccc(Cl)cc2)n(C)c1C |  | inactive: -2.82% [at 46.1 µM]
COc1ccc2nc(NC(=O)CSCc3c(C)noc3C)sc2c1 | inconclusive: 5.62 µM [activator, single point] | 
Cc1ccc(Nc2nc3ccccc3c3nncn23)cc1C | inconclusive: 10 µM [inhibitor, partial curve, poor fit] | 
Cc1nc(-c2coc3cc(O)c(C)cc3c2=O)cs1 | inconclusive: 22.4 µM [inhibitor, single point] | 
COC(=O)Cn1c2c(c3cc(C)ccc31)CCCC2NC(C)c1ccccc1 (stereo unspecified) | inconclusive: 0.708 µM [inhibitor, partial curve, poor fit] | 
CC1Cc2ccccc2N1CC(=O)Nc1ccc(Cl)c(S(=O)(=O)N(C)C)c1 (stereo unspecified) |  | inactive: -17.1%
CCN(CC)S(=O)(=O)c1ccc(OC)c(NC(=O)Cc2cccs2)c1 | inconclusive: 25.1 µM [inhibitor, single point] | 
CCOC(=O)c1c(CSc2cccs2)n(C)c2cc(Br)c(O)c(CN(C)C)c12 | inconclusive: 12.6 µM [inhibitor, partial curve, poor fit] | 
Nc1ccccc1N=c1ssnc1Cl |  | inactive: 28.3% [at 46.1 µM]
CCOC(=O)/C(=N\Nc1ccccc1)S(=O)(=O)c1ccccc1 |  | inactive: -23.7%
O=C(c1ccc(Br)o1)N1CC=C(c2ccccc2)CC1 |  | inactive: -1.71%
O=C1c2ccccc2C(=O)c2c1ncn2-c1ccccc1 | inconclusive: 35.5 µM [inhibitor, single point] | 
CC1(C)Cc2nc3nc(SCC(=O)Nc4ccccc4)nc(N)c3cc2CO1 | inconclusive: 22.4 µM [activator, single point] | 
Cc1ccc(NC(=O)CO/N=C(\N)c2ccccc2)cc1C | inconclusive: 35.5 µM [inhibitor, single point] | 
ClC(Cl)(c1nnnn1-c1ccccc1)c1nnnn1-c1ccccc1 | inconclusive: 23.1 µM [inhibitor, single point] | 
CCOc1ccc(-c2cc(CCCC(=O)N3CCN(c4ccc(OC)cc4)CC3)no2)cc1 | inconclusive: 32.6 µM [inhibitor, single point] | 
O=C(Cc1ccccc1)Nc1c(C(=O)Nc2ccccc2F)oc2ccccc12 |  | inactive: 3.08% [at 46.1 µM]
Cc1cc(O)c(C(C)C)cc1NC(=O)Nc1ccc([N+](=O)[O-])cc1 | inconclusive: 35.5 µM [inhibitor, single point] | 
Cc1ccc(OCc2nc3ccccc3n2Cc2ccccc2Cl)cc1 | inconclusive: 0.562 µM [inhibitor, full curve, poor fit] | 
COC(=O)c1ccccc1OCC(=O)NC1CCCCC1 | inconclusive: 29.1 µM [activator, single point] | 
Fc1ccccc1-c1nc(-c2ccccc2)no1 | inconclusive: 35.5 µM [inhibitor, single point] | 
COc1ccc(NC(=O)c2ccc(COc3ccccc3OC)o2)cc1OC | inactive | 
COc1cc(NC(=O)CCc2nnc3ccc(N4CCCC4)nn23)cc(OC)c1OC | inconclusive: 3.16 µM [inhibitor, single point] | 

Compound | Potency | activity change, negative = inhibition
O=C(c1ccccc1F)N1CCN(Cc2nc3sc4c(c3c(=O)[nH]2)CCCC4)CC1 | inconclusive: 8.91 µM [inhibitor, partial curve] | 
Cc1nn(-c2ccccc2)c2nc3c(cc12)C(=O)CCC3 | inconclusive: 14.1 µM [inhibitor, single point] | 
COc1ccccc1-c1cc(C(=O)NCc2ccccc2)no1 |  | inactive: -28.1%
N#C/C(=C(/O)COC(=O)CCC1CCCCC1)c1nc2ccccc2[nH]1 | inconclusive: 7.94 µM [inhibitor, partial curve, poor fit] | 
Cc1cc(C)c(Cn2c(C(O)c3ccccc3)nc3ccccc32)c(C)c1 (stereo unspecified) | inconclusive: 3.98 µM [inhibitor, full curve, poor fit] | 
CN(C)c1nc(NCc2ccccc2)nc(SCC(=O)Nc2ccccc2)n1 | inconclusive: 29.1 µM [inhibitor, single point] | 
COc1ccc(-c2nsc3c(N4CCCCC4)ncnc23)cc1 | inconclusive: 7.3 µM [inhibitor, partial curve, poor fit] | 
CC(C)(C)C(=O)Nc1cccc(-c2nc3ccccc3[nH]2)c1 |  | inactive: -8.9%
COC(=O)N1CCN(c2ccc(Cl)c(Cl)c2)CC1 | inconclusive: 5.8 µM [inhibitor, full curve] | 
N#Cc1ccc(CSc2nnc(-c3ccccc3)n2Cc2ccco2)cc1 | inconclusive: 6.51 µM [inhibitor, partial curve, poor fit] | 
Cc1ccc(CSCc2ccc(C(=O)NCC3CCCO3)o2)cc1 (stereo unspecified) | inconclusive: 3.16 µM [inhibitor, partial curve, poor fit] | 
COc1cc(OC)cc(-c2cn[nH]c2N)c1 | inconclusive: 15.8 µM [inhibitor, single point] | 
COc1ccccc1CC(=O)N1CCN(c2cccc(C(F)(F)F)c2)CC1 | inconclusive: 16.4 µM [inhibitor, partial curve, poor fit] | 
CC1CN(C(=O)c2ccccc2Sc2ccccc2C#N)CC(C)O1 (stereo unspecified) |  | inactive: -4.91%
Cc1cc(NC(=O)Cn2nc(C(F)(F)F)c3c2CCCC3)no1 | inconclusive: 0.1 µM [activator, full curve, poor fit] | 
COc1ccccc1-c1c(-c2ccc(OCC(=O)NN)cc2O)n[nH]c1C(F)(F)F | inconclusive: 7.31 µM [inhibitor, partial curve, poor fit] | 
COc1ccccc1OCc1ccc(C(=O)NCc2cccnc2)o1 |  | inactive: -11.5% [at 46.1 µM]
CCOC(=O)c1ncn2c1[C@H]1CCCN1C(=O)c1cc(OC)ccc1-2 | inconclusive: 0.82 µM [inhibitor, full curve, poor fit] | 
COc1ccc(Nc2ncnc3sc(-c4ccccc4)cc23)cc1OC | inconclusive: 35.5 µM [inhibitor, single point] | 
S=C(NCc1cccs1)Nc1cc(Cl)cc(Cl)c1 | inconclusive: 17.8 µM [inhibitor, partial curve, poor fit] | 
CCC(=O)N1CCc2cc(Br)cc(S(=O)(=O)NCCc3ccccc3)c21 |  | inactive: 22.9% [at 46.1 µM]
O=C(NC1CCCC1)C(c1ccccn1)N(C(=O)c1csnn1)c1ccccc1Br (stereo unspecified) |  | inactive: 14.5%
COc1ccc(COn2nnc3ccc(S(=O)(=O)N4CCOCC4)cc32)cc1F |  | inactive: 4.91% [at 46.1 µM]
